Test results published in paper PMC6746942.
Construct, isoform or probe ends are uncertain for at least one entry. A weaker result is weaker than the reference pair of the same experiment. Tags and fusion partners may be left off the protein sequences shown. At least one verdict was read from the data and is not stated in words by the source.

Molecular target: T1, YtrASa (Sulfolobus acidocaldarius) (UniProt Q4J7S4)
T1 sequence (looked up, limits assumed): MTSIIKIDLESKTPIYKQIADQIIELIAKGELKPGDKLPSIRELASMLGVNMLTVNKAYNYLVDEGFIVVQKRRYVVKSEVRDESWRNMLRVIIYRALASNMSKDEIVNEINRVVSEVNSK
Experiment: EMSA
Details: 20 mM Tris-HCl pH 8.0, 1 mM MgCl2, 0.1 mM DTT, 12.5% glycerol, 50 mM NaCl, 0.4 mM EDTA, 37 C, ~0.1 nM 32P-DNA, excess non-specific competitor DNA, 6% native PAGE, recombinant protein, protein details: C-terminal His, label: 32P

“TATTCCCCTAAATCATATATTTGCTATATGACAAGTATAATAAAAATCGACCTA (double strand) [WT ytrASa binding site (50-bp probe)]”: binds (KDapp printed in figure only).
“TATTCCCCTAAATCATATATCCTCTGCCGGATCCGTATAATAAAAATCGACCTA (double strand) [MUT A (Leftprim, Middleprim, Rightprim mutated)]”: binds more weakly (almost entirely abrogated, KDapp in figure only).
“TATTCCCCTAAATCATATATCCTCTATATGATCCGTATAATAAAAATCGACCTA (double strand) [MUT B (primary half sites mutated)]”: binds more weakly (larger effect than MUT C, KDapp in figure only).
“TATTCCCCTAAATCAGCGCTTTGCTATATGACAAGGCGCATAAAAATCGACCTA (double strand) [MUT D (both secondary half sites mutated)]”: binds more weakly (strong decrease, KDapp in figure only).
“TATTCCCCTAAATCATATATTTGCTGCCGGACAAGTATAATAAAAATCGACCTA (double strand) [MUT C (Middleprim mutated)]”: binds more weakly (smaller effect than MUT B, KDapp in figure only).
